# PubChem BioAssay AID686943 – Drosophila RNAi Screening Center | 2013
# Purpose: 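Search across the genome for regulators of signalling from receptor tyrosine kinase to ERK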 (primary screen)
# System: Drosophila S2R+ haemocyte-like cells expressing YFP-tagged ERK (Rolled)
# Knock-down reagent: long dsRNA against Drosophila genes
# Treatment: insulin stimulation versus unstimulated cells; dose and duration not given
# Measurement: 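Per-plate z-scores of phospho-ERK immunostaining normalised to YFP-tagged ERK, measured with and without insulin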
# Scale: replicate 1, z-score of dpERK with insulin and replicate 2, z-score of dpERK with insulin: higher = more active ERK per ERK-YFP after insulin; replicate 1, z-score of dpERK under basal conditions: higher = more basal active ERK per ERK-YFP; replicate 1, z-score of ERK-YFP with insulin: higher = more YFP-tagged ERK signal
# In all, the deposit lists about 23,000 reagents; below is a random part of those that have a named target and a result. 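Extra replicates exist only for a retested subset of genes; insulin dose and duration not given; both raised and lowered dpERK matter.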 The record does not give: the amount of reagent, the time to read-out.
predicted target,dsRNA,"replicate 1, z-score of dpERK with insulin","replicate 2, z-score of dpERK with insulin","replicate 1, z-score of dpERK under basal conditions","replicate 1, z-score of ERK-YFP with insulin"
CG16865,DRSC01904,0.25,-0.21,-0.65,-0.03
Scp2,DRSC13166,0.22,0.19,0.93,0.46
Scp2,DRSC16854,-0.06,0.04,2.29,0.49
nmdyn-D6,DRSC20355,0.43,0.63,0.04,0.07
Snmp1,DRSC16168,-0.56,0,-0.48,0.09
Sk1,DRSC19774,-1.22,-0.5,-1.07,0.14
CG4896,DRSC00671,-0.29,-1.33,-0.82,-0.69
CG15356,DRSC00386,-0.42,0.71,-2.2,-0.32
CG31058 (retired record),DRSC15840,0,-2.45,-1.87,0
fzy,DRSC03534,-5.36,-2.58,-1.2,-10.5
CG14511,DRSC14863,-0.39,-0.02,-0.63,0.44
Apc,DRSC14114,0.37,-0.12,1.56,0.14
Osi5,DRSC12276,-0.14,0.34,0.72,-0.26
Tmhs,DRSC08231,0.67,0.91,-0.01,-0.05
Jhbp3,DRSC12247,0.24,0.1,-0.1,0.17
CG31915,DRSC03000,0.59,0.51,-1.14,0.04
sphinx2,DRSC22188,-0.46,0.01,-0.46,0.3
CG1486,DRSC20508,-0.44,0.8,-0.36,-0.26
CG17508,DRSC07771,0.33,0.53,0.74,0.22
CG3337,DRSC15478,0.19,-0.17,1.91,0.16
CG43127,DRSC09039,-0.25,0.15,0.01,0.48
swa,DRSC18842,0.45,0.49,0.61,-0.16
CG14676,DRSC12262,1.33,1.57,0.59,-0.02
Gnf1,DRSC12351,-2.29,-1.22,-1.45,-0.77
ssp,DRSC10252,-2.02,0.13,-0.97,-0.95
CG14309,DRSC14788,1.11,0.05,0.9,-0.04
CG18304,DRSC02664,0.73,0.45,0.55,0.53
bdl,DRSC00271,-0.04,0.54,-0.21,0.14
CIAPIN1,DRSC03559,0.43,0.8,0.44,-0.34
mip130,DRSC18575,0,-1.41,4,0
okr,DRSC00834,-0.23,-0.24,0.27,-0.02
GramD1B,DRSC00426,0.25,0.71,-0.18,-0.8
GramD1B,DRSC00591,0.23,0.12,0.07,1.6
CG10948,DRSC09806,0.05,-0.11,0.63,-0.14
CG17145,DRSC10247,0.22,0.62,-0.69,-0.16
yata,DRSC15408,0.4,0.02,-0.37,0.06

An excerpt from the list above:
predicted target,dsRNA,"replicate 1, z-score of dpERK with insulin","replicate 2, z-score of dpERK with insulin","replicate 1, z-score of dpERK under basal conditions","replicate 1, z-score of ERK-YFP with insulin"
Tmhs,DRSC08231,0.67,0.91,-0.01,-0.05
Jhbp3,DRSC12247,0.24,0.1,-0.1,0.17
CG31915,DRSC03000,0.59,0.51,-1.14,0.04
sphinx2,DRSC22188,-0.46,0.01,-0.46,0.3
CG1486,DRSC20508,-0.44,0.8,-0.36,-0.26
CG17508,DRSC07771,0.33,0.53,0.74,0.22
CG3337,DRSC15478,0.19,-0.17,1.91,0.16
CG43127,DRSC09039,-0.25,0.15,0.01,0.48
swa,DRSC18842,0.45,0.49,0.61,-0.16

The list goes on:
predicted target,dsRNA,"replicate 1, z-score of dpERK with insulin","replicate 2, z-score of dpERK with insulin","replicate 1, z-score of dpERK under basal conditions","replicate 1, z-score of ERK-YFP with insulin"
CG9286,DRSC16467,0.42,0.08,-0.19,0.6
Ada,DRSC14463,1.52,0.8,1.52,-0.65
AANATL6,DRSC06773,0.69,-0.38,1.2,-0.43
CG11837,DRSC14397,-0.74,0.88,0.46,0.51
CG10341,DRSC02040,-0.51,-0.18,-0.5,0.47
Atg8b,DRSC14501,1.33,0.39,1.5,-0.29
Sox102F,DRSC17204,0.48,0.08,-0.38,-0.28
Ibf2,DRSC16551,0.65,0.76,0.88,-0.45
sut3,DRSC07702,-0.06,0.43,-0.35,0.04
beat-Vb,DRSC12940,-0.23,-0.01,1.68,-0.4
beat-Vb,DRSC14844,1.56,-0.66,0.36,-0.59
beat-Vb,DRSC14845,-1.92,-0.97,-2.88,-0.14
Hrb27C,DRSC03347,-1.26,-1.53,0.23,1.44
CG5421,DRSC02858,0,0.67,1.15,0.29
SmydA-9,DRSC17814,0.18,0.58,1.13,0.32
gdrd,DRSC10020,0.23,0.06,0.48,-0.18
CG31407,DRSC12761,-0.38,0.19,-0.96,0.29
HnRNP-K,DRSC07585,-0.1,0.67,-0.97,1.2
HnRNP-K,DRSC22734,0.65,0.94,-2.31,0.81
CG13004,DRSC19523,0.58,0.36,0.83,0.34
CG2209,DRSC19843,-0.05,0.25,-0.37,0.26
